Variants at the floor of the assay are shown more often than the library holds them.
B1: tRNA (parent)
chain: GUUCCGUUGGCGUAAUGGUAACGCGUCUCCCUCCUAAGGAGAAGACUGCGGGUUCGAGUCCCGUACGGAACG

Variants of: B1
Assay: yeast fitness relative to wild type (ratio to wild type); higher = fitter; tRNA-Arg(CCU), competitive growth, 37 C, YPD
Summary of the method: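 Genotype frequency changes were the basis for Darwinian fitness relative to wild type. The frequencies came from 100-nucleotide paired-end sequencing of gene amplicons from the start population and each end population of pooled yeast strains with tRNA-Arg(CCU) gene variants at the native locus. Competition ran in YPD at 37°C for 24 hours in six replicates, genotypes needed ≥ 100 starting reads, and estimates < 0.5 were set to 0.5.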
C11A U35G showed a yeast fitness of 0.514. For U19A C46U C62A, the yeast fitness was no more than 0.5. With G12C C27G A36C G44A the yeast fitness was no more than 0.5. In the case of C4U G9A, the yeast fitness is reported as 0.927. G12C U16A A43C A57G U59C A70G showed a yeast fitness of no more than 0.5. For C11U A14G U28A C55G, the yeast fitness was no more than 0.5. Variant C5U A21U U28C C30G A70U has a yeast fitness of no more than 0.5. C24U C30G C46G G52A G58A showed a yeast fitness of 0.559. A20G A37U G41C C46A showed a yeast fitness of no more than 0.5. For U19C A20C C31G C49A U64G A69C, the yeast fitness was no more than 0.5. With G18A C27U C31A C49U the yeast fitness was no more than 0.5. For G17A C22G C30G G44C C49U, the yeast fitness was no more than 0.5. Work on G17A U19A C30G A37U A40G yielded a yeast fitness of no more than 0.5. Variant C4G U19G G44A C46G has a yeast fitness of no more than 0.5. G9A C24G C34G A45C A65G showed a yeast fitness of no more than 0.5. With G17A C24A U35A G52A G58A the yeast fitness was no more than 0.5. For C5G G25A A42G U54G C55U A70C, the yeast fitness was no more than 0.5. Work on C4U A37G G39C U53A C66U yielded a yeast fitness of no more than 0.5. In the case of C5A C31G C33U, the yeast fitness is reported as no more than 0.5. With C22G U28A C31G G39A C55A G68C the yeast fitness was no more than 0.5. In the case of C4U G52C C62G, the yeast fitness is reported as no more than 0.5. For C27G A45U G56C A57G, the yeast fitness was no more than 0.5. In the case of C61U G68C, the yeast fitness is reported as 0.68. Variant A15G C24G A37G C49A has a yeast fitness of no more than 0.5. For A20G U32C A40C A42U A43C G48A, the yeast fitness was no more than 0.5. G10C C22U C34U C55A gave a yeast fitness of no more than 0.5. With C24U A42U C62G A65U the yeast fitness was no more than 0.5. Work on C27U A45G U53C yielded a yeast fitness of 0.544. Variant U16C A40U A57C A70U has a yeast fitness of 0.585. U8C A20G A21U gave a yeast fitness of no more than 0.5. With U2C C31G C62A C66U the yeast fitness was no more than 0.5. In the case of A20U A21U A57C U64G, the yeast fitness is reported as no more than 0.5. C5G A21G C49A U54C A65G showed a yeast fitness of no more than 0.5. For G44C C60A, the yeast fitness was 0.572. For A20G C27A C31A C61U, the yeast fitness was no more than 0.5. C5G G12C A65C showed a yeast fitness of no more than 0.5. Work on A15U C33G A43C G44U yielded a yeast fitness of no more than 0.5. With C5U A15G C27A C46A C55A the yeast fitness was no more than 0.5. A14U A15G C31A C34G C61U showed a yeast fitness of no more than 0.5. C24G C29U C49U showed a yeast fitness of no more than 0.5. A20C C61G A65U showed a yeast fitness of no more than 0.5. With C22G C27G C29G C49U the yeast fitness was no more than 0.5. C5U C22G C29A A45U G58C gave a yeast fitness of no more than 0.5. For C5A U8A C46G, the yeast fitness was no more than 0.5. Variant G51C C55G has a yeast fitness of no more than 0.5. In the case of G6A C11G C30U C46G G58C, the yeast fitness is reported as no more than 0.5. In the case of G10C A43C A65U, the yeast fitness is reported as no more than 0.5. C4G A40U A42C A57C gave a yeast fitness of no more than 0.5. G25A C27G A65G showed a yeast fitness of no more than 0.5. A20G G23C A69C showed a yeast fitness of no more than 0.5. Work on C11U A14C C31U A36U A69C yielded a yeast fitness of no more than 0.5. U2G G68C gave a yeast fitness of 0.705. Variant U2C C22G C31U C60U C61U C66G has a yeast fitness of no more than 0.5. C22U A37U U47C gave a yeast fitness of no more than 0.5. For U3A A43C C62A C66G, the yeast fitness was no more than 0.5. G6C A20C C22A A36C A69U gave a yeast fitness of no more than 0.5. For G25C C33U A43U C61G, the yeast fitness was no more than 0.5. In the case of G12A G44C G58C A69U, the yeast fitness is reported as no more than 0.5. U2C C29U C46G G51A G52C showed a yeast fitness of 0.557. In the case of U16A C24U C33A G44C C61G A69U, the yeast fitness is reported as no more than 0.5. For A20G C24U G52A, the yeast fitness was no more than 0.5. Variant C4A G17C G23C A45C C60U has a yeast fitness of no more than 0.5. U16A G41A A70U showed a yeast fitness of 0.666. For C29U U32C C60G, the yeast fitness was no more than 0.5. A21G G25C C27G A42C G68C gave a yeast fitness of no more than 0.5. With U19G C55G C66U the yeast fitness was 0.536. In the case of G6A G9C C27A C31A C49G, the yeast fitness is reported as no more than 0.5. In the case of A15C U35G A45G, the yeast fitness is reported as no more than 0.5. G10A C24G C46G showed a yeast fitness of no more than 0.5. C5U A20U C49G A69C gave a yeast fitness of no more than 0.5. Work on A42U A45U yielded a yeast fitness of 1.09. Work on U19C A43U C62G yielded a yeast fitness of no more than 0.5. In the case of C11G C30G A65C, the yeast fitness is reported as no more than 0.5. With C5U G12A A40U A45G C60A G63A the yeast fitness was no more than 0.5. In the case of G18C C27U A45C A69G, the yeast fitness is reported as no more than 0.5. C11G A21U G68C gave a yeast fitness of no more than 0.5. Variant U2A G12A A21C G52C has a yeast fitness of no more than 0.5. C4G A14G G38A showed a yeast fitness of no more than 0.5. Work on A21U G67U yielded a yeast fitness of 0.742. With U19A C24U G25C A70C the yeast fitness was no more than 0.5. With C29A C33G A70G the yeast fitness was no more than 0.5. C4A U16C G17A C49U showed a yeast fitness of no more than 0.5. In the case of C4G G23A C55A G67A, the yeast fitness is reported as no more than 0.5.
